Experimental data reported in publication PMC9962204.
Results are given in words; binding and its absence hold for the method and conditions named. In cells and extracts the contact can be indirect. Binding can be weak; no strength is given. Where a sequence is shown, tags or fusion partners need not be part of it.

The chains behind the UniProt entries cited, without tags or fusion partners. Where a name states a change or a piece, a line headed by the entry shows the natural chain unless it says otherwise.
UniProt Q9SZY5: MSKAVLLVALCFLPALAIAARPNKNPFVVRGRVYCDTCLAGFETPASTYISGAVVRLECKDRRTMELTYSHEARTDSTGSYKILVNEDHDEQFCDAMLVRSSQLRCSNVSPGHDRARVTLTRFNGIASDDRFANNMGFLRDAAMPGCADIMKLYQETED

Biological target: AtSAH7-nCerulean (BiFC fusion, pSAT4-nCerulean-C) (Arabidopsis thaliana) (UniProt Q9SZY5)
Assay: split reporter; BiFC in living Arabidopsis mesophyll and root protoplasts; AtSBP1 fused to cCFP, AtSAH7 fused to nCerulean; fluorescence microscopy; three independent repetitions

- binding: binds
B1: AtSBP1-cCFP (BiFC fusion, pSAT1-cCFP-N1) (protein, UniProt O23264 1-490)
chain: MATETEVVAPVTVSNGGSKGCCKYGGPGYATPLAAMSGPSEKLIYVTAVYTGTGIDKPDYLATVDVDPSSPSYSSVIHRLPMPFVGDELHHSGWNSCSSCHGDASVDRRYLVLPSLISGRIYAIDTKENPRAPSLYKYVDPKEIADKTGLAFPHTAHCLATGEILVSCLGDEEGNAKGNGFLLLDSDFNIKNRWEKPGHSPLYGYDFWYQPRHKTMISTSWGAPKAFSKGFNLQHVADGLYGSHLHVYSWPGGEIKQLIDLGPTGLLPLEIRFLHDPSKDTGFVGSALSSNMIRFFKNSDETWSHEVVISVKPLKVENWILPEMPGLITDFLISLDDRFIYFVNWLHGDIRQYNIEDPKNPVLTGQIWVGGLLQKGSPVKAVGEDGNTFQFEVPQIKGKSLRGGPQMIQLSLDGKRLYATNSLFSAWDRQFYPEIMEKGSHIIQIDVDTEKGGLTINPDFFVDFGDEPDGPSLAHEMRYPGGDCTSDIWI
